Measured values published in the supplement of paper PMC10849652.
The list shows a part of the results.

Protein sequences, listed by entry. Tags and fused reporters are not part of them. Lines headed by an entry give the natural chain unless they say otherwise; changes in a name come on top.
UniProt Q9UHB9: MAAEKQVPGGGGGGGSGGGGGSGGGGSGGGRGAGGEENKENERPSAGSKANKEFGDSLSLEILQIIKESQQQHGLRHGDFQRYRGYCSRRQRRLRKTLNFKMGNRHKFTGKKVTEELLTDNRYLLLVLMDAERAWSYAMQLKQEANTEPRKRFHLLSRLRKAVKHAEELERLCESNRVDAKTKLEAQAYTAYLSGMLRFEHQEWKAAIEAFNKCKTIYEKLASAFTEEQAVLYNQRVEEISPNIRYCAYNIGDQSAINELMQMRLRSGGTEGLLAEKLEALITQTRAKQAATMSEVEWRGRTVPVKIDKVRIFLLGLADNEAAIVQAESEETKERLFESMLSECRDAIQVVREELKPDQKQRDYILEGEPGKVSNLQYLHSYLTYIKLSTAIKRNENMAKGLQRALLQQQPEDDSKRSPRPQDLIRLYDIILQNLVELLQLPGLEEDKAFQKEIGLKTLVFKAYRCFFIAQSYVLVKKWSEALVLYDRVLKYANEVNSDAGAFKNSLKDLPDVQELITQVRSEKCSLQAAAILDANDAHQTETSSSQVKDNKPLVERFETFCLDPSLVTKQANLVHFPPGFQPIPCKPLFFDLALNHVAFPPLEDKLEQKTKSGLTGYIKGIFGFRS
UniProt P51571: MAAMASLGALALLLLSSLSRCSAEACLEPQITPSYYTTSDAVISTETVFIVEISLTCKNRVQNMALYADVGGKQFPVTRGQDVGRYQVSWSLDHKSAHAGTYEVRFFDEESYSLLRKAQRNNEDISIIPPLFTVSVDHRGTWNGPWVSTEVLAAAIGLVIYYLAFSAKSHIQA
UniProt Q14849, whole entry, looked up: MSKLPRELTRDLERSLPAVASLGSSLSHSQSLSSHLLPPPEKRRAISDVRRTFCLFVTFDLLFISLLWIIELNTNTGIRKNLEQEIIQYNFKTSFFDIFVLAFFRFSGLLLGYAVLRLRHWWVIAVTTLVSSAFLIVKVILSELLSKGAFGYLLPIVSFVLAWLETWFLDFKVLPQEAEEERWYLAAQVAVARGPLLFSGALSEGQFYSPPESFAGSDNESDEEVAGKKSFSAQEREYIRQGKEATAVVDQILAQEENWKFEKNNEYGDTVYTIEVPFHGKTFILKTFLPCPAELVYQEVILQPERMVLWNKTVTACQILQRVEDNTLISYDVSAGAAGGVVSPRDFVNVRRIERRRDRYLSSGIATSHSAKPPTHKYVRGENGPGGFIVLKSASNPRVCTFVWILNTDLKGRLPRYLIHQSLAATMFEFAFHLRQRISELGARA
UniProt P40763, whole entry, looked up: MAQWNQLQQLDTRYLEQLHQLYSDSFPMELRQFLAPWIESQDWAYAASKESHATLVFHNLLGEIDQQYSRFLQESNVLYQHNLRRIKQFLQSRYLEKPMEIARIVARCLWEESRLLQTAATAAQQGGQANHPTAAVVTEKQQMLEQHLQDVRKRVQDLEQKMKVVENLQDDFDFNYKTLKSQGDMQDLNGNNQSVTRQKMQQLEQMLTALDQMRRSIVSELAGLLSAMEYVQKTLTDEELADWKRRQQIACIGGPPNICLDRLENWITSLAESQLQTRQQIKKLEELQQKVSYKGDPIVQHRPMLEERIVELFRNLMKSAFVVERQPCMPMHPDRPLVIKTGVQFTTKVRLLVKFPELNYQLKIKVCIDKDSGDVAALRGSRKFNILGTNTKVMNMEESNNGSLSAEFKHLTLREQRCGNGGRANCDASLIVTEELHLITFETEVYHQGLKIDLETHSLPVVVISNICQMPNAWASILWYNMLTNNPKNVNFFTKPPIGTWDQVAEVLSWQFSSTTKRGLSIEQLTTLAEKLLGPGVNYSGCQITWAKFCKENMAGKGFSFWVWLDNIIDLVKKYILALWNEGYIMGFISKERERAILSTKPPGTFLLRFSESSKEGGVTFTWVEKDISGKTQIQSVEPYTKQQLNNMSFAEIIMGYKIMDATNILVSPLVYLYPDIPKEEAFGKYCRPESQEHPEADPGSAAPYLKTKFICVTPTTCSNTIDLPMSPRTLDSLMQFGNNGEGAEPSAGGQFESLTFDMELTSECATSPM
UniProt Q5M775: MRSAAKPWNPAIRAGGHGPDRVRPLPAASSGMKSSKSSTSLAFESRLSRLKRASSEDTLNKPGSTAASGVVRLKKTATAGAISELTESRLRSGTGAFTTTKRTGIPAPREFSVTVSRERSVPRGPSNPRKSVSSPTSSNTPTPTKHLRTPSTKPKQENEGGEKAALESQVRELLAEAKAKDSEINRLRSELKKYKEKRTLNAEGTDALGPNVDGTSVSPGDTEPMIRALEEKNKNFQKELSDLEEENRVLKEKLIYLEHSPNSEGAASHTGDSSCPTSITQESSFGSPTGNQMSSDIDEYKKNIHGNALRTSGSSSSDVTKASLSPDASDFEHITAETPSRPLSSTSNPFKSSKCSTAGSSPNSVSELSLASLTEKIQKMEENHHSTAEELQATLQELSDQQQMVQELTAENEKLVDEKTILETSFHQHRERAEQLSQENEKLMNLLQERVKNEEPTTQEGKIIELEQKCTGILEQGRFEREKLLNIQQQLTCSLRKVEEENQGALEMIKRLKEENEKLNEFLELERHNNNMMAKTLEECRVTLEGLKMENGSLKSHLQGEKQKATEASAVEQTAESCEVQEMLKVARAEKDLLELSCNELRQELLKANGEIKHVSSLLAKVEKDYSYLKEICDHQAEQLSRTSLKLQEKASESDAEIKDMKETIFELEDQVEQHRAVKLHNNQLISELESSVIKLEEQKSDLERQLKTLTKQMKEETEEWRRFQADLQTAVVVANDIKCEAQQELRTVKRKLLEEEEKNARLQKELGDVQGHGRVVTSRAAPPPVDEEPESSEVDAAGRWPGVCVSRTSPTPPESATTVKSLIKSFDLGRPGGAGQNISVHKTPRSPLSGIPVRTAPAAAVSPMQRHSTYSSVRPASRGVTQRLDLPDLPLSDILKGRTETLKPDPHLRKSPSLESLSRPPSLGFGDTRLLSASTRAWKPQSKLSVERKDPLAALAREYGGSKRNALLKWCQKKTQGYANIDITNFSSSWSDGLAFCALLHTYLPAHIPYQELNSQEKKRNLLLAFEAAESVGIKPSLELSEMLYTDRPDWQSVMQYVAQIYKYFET
UniProt P51692: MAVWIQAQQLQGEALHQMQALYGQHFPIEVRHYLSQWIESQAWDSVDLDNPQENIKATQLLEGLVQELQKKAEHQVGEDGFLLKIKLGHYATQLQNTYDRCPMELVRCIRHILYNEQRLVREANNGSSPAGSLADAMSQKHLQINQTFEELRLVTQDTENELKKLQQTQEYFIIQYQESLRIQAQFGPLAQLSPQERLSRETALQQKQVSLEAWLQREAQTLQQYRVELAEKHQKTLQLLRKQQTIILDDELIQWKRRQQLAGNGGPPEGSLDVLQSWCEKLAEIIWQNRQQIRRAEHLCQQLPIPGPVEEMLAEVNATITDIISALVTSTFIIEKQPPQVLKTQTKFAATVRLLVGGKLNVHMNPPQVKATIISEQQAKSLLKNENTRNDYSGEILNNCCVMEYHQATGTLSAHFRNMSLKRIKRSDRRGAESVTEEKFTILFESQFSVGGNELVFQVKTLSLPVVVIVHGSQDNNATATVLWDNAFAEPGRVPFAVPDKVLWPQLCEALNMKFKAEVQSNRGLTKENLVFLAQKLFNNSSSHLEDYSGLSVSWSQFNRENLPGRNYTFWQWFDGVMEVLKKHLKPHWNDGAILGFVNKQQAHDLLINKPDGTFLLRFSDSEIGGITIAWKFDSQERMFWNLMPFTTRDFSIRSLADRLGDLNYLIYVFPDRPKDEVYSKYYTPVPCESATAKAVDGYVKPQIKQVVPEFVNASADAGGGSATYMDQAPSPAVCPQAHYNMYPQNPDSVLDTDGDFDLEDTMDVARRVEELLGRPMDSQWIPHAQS
UniProt Q9NY15: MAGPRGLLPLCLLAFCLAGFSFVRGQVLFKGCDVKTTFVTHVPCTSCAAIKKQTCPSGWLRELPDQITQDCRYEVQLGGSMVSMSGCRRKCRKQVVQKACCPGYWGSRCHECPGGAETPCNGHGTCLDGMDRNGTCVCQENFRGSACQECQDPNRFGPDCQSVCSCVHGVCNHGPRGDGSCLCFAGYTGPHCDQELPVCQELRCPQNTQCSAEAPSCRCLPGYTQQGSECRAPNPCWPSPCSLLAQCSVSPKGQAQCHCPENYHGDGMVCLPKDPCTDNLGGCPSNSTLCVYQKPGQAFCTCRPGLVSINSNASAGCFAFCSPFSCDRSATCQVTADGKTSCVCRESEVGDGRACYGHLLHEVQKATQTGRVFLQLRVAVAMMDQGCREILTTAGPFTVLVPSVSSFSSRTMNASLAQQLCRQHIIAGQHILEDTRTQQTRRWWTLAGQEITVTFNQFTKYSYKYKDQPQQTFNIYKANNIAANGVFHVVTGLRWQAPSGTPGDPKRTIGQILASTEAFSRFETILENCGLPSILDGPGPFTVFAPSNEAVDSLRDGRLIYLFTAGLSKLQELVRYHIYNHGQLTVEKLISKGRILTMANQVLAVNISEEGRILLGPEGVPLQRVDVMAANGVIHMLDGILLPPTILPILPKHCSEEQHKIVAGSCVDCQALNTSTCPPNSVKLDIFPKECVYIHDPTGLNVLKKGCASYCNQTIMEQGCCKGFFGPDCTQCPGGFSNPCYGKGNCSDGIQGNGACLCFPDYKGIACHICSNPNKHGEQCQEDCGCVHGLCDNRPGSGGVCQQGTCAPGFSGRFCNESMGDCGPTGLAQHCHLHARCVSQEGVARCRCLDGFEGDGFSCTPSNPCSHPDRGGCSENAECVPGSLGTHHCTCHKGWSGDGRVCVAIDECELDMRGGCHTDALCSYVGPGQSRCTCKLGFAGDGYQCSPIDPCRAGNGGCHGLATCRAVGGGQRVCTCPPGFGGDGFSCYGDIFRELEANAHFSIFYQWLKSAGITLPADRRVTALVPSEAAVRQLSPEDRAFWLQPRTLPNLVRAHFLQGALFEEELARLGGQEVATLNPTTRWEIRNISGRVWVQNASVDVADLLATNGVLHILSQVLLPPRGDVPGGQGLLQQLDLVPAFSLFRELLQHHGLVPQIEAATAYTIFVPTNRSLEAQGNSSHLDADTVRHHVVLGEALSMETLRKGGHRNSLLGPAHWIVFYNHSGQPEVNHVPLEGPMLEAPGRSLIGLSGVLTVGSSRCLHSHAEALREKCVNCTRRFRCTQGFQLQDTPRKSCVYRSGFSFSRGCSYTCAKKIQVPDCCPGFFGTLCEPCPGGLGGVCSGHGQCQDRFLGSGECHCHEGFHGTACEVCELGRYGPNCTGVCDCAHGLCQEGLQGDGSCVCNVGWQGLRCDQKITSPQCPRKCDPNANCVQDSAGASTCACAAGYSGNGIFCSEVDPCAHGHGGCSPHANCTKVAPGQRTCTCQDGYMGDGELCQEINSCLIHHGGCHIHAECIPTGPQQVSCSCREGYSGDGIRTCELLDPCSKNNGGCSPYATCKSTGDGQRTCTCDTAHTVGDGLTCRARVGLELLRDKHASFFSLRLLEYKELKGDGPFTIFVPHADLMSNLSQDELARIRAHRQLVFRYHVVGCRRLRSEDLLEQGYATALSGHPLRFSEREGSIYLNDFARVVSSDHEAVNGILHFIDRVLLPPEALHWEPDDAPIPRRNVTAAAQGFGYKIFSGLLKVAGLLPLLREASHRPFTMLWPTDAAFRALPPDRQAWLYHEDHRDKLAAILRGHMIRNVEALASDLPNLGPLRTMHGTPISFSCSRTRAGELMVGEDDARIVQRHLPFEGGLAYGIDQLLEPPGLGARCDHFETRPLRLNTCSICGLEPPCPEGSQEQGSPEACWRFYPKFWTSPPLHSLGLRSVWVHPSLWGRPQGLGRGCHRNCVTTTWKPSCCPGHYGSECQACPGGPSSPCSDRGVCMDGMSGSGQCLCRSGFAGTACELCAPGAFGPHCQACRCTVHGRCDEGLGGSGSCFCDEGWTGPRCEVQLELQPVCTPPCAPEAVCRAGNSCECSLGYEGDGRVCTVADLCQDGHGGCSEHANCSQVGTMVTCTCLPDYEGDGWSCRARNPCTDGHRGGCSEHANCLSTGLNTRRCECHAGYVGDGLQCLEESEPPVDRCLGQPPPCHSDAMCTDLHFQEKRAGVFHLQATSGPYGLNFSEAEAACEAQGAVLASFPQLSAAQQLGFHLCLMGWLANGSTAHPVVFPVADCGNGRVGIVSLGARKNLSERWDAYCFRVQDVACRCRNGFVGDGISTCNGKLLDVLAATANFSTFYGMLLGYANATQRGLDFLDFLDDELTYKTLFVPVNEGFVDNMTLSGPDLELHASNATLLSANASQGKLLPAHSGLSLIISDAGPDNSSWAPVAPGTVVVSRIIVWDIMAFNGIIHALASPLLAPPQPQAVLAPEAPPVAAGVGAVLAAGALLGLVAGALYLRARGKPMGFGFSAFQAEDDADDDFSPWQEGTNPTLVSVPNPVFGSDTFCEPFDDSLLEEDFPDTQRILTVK
UniProt Q9BYN0: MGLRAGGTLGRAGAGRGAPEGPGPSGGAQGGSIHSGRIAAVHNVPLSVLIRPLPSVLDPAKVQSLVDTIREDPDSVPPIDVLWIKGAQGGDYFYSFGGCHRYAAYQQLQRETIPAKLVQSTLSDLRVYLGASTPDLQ

How the values were obtained:
Experiment in all cases: log2 fold change, soluble protein after heating vs DMSO (PISA); higher = thermal stabilisation; K562 cells, 10 uM, 30 min; active = over 0.2 and 3.5 SD of the protein, either way, in both replicates (recomputed)
saracatinib = compound: CN1CCN(CCOc2cc(OC3CCOCC3)c3c(Nc4c(Cl)ccc5c4OCO5)ncnc3c2)CC1 [saracatinib]
Procedure, shortened: (§1)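 Soluble protein was defined as the supernatant after 21,000xg for 90 min. It came from K562 cells at 2×10^6 cells/mL given 10 μM compound for 30 min, heated in aliquots for 3 min across 48°C-58°C, pooled, and extracted in PBS with 0.5% NP-40 at 4°C, and was quantified by TMTpro 16plex LC-MS/MS with equalised channel sums. Thermal stability against control samples, from duplicates, is reported as log2 fold change.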

sotrastaurin = compound: CN1CCN(c2nc(C3=C(c4c[nH]c5ccccc45)C(=O)NC3=O)c3ccccc3n2)CC1 [sotrastaurin]
Procedure, shortened: as §1

Tubastatin A = compound: CN1CCc2c(c3ccccc3n2Cc2ccc(C(=O)NO)cc2)C1 [Tubastatin A]
Procedure, shortened: as §1

[1] = compound: CNC(=O)C1=CC=CC=C1NC2=NC(=NC=C2Cl)NC3=C(C=C(C=C3)N4CCOCC4)OC
Procedure, shortened: as §1

defactinib = compound: CNC(=O)c1ccc(Nc2ncc(C(F)(F)F)c(NCc3nccnc3N(C)S(C)(=O)=O)n2)cc1 [defactinib]
Procedure, shortened: as §1

rucaparib = compound: CNCc1ccc(-c2[nH]c3cc(F)cc4c3c2CCNC4=O)cc1 [rucaparib]
Procedure, shortened: as §1

[2] = compound: CNc1nc(-c2ccc3c(N)n[nH]c3c2)cc(N2C[C@@H](C(=O)NC3CCCCC3)CC[C@H]2C)n1
Procedure, shortened: as §1

encorafenib = compound: COC(=O)N[C@@H](C)CNc1nccc(-c2cn(C(C)C)nc2-c2cc(Cl)cc(NS(C)(=O)=O)c2F)n1 [encorafenib]
Procedure, shortened: as §1

[3] = compound: COC(=O)[C@H](CCSC)NC(=O)C1=C(C=C(C=C1)NC[C@H](CS)N)C2=CC=CC=C2
Procedure, shortened: as §1

alvocidib = compound: CN1CC[C@H](c2c(O)cc(O)c3c(=O)cc(-c4ccccc4Cl)oc23)[C@H](O)C1 [alvocidib]
Procedure, shortened: as §1

| Target | log2 fold change (saracatinib) | log2 fold change (sotrastaurin) | log2 fold change (Tubastatin A) | log2 fold change [1] | log2 fold change (defactinib) | log2 fold change (rucaparib) | log2 fold change [2] | log2 fold change (encorafenib) | log2 fold change [3] | log2 fold change (alvocidib) |
| --- | --- | --- | --- | --- | --- | --- | --- | --- | --- | --- |
| SRI (UniProt P30626) | inactive: -0.034 | inactive: -0.017 | inactive: 0.039 | inactive: 0.034 | inactive: -0.108 | inactive: -0.012 | inactive: -0.021 | inactive: -0.03 | inactive: -0.022 | – |
| SRP68 (UniProt Q9UHB9) | inactive: -0.033 | inactive: -0.179 | inactive: 0.085 | inactive: -0.002 | inactive: -0.019 | inactive: 0.152 | inactive: 0.049 | inactive: 0.14 | inactive: -0.073 | – |
| SSR4 (UniProt P51571) | inactive: -0.008 | inactive: 0.013 | inactive: 0.006 | inactive: 0.014 | inactive: 0.015 | inactive: 0 | inactive: 0.004 | inactive: -0.028 | inactive: -0.007 | – |
| STARD3 (UniProt Q14849) | inactive: -0.043 | inactive: -0.028 | inactive: 0.013 | inactive: -0.02 | inactive: -0.035 | – | inactive: 0.028 | – | inactive: -0.014 | – |
| SSBP4 (UniProt Q9BWG4) | active: 0.409 | inactive: 0 | inactive: 0.038 | inactive: -0.184 | – | inactive: 0.022 | inactive: 0.031 | inactive: -0.18 | – | – |
| STAT3 (UniProt P40763) | inactive: 0.025 | inactive: -0.144 | inactive: 0.05 | inactive: 0.029 | inactive: -0.124 | inactive: -0.062 | inactive: -0.017 | inactive: 0.077 | inactive: -0.012 | – |
| SSB (UniProt P05455) | inactive: -0.001 | inactive: -0.158 | inactive: 0.015 | inactive: 0.016 | inactive: -0.187 | inactive: -0.031 | inactive: -0.089 | inactive: 0 | inactive: 0.042 | – |
| SPECC1 (UniProt Q5M775) | inactive: -0.171 | inactive: 0.093 | inactive: -0.024 | inactive: -0.069 | inactive: 0 | inactive: 0.091 | inactive: -0.104 | inactive: -0.015 | inactive: -0.062 | – |
| SRR (UniProt Q9GZT4) | inactive: -0.016 | inactive: 0.048 | inactive: 0.004 | inactive: 0.085 | inactive: -0.073 | inactive: -0.048 | inactive: -0.094 | inactive: 0.017 | inactive: 0.047 | – |
| STAT5B (UniProt P51692) | inactive: -0.231 | inactive: -0.083 | inactive: 0.045 | inactive: -0.053 | inactive: -0.33 | inactive: 0.105 | inactive: 0.138 | inactive: 0.073 | inactive: -0.052 | – |
| SPTBN1 (UniProt Q01082) | inactive: -0.019 | active: -0.224 | inactive: 0.042 | inactive: 0.048 | inactive: -0.125 | inactive: 0.084 | inactive: -0.047 | inactive: 0.064 | inactive: -0.057 | – |
| SRCAP (UniProt Q6ZRS2) | inactive: 0.032 | inactive: -0.045 | active: -0.486 | inactive: -0.069 | inactive: -0.004 | inactive: -0.058 | inactive: -0.028 | inactive: 0.009 | inactive: -0.015 | – |
| STAR (UniProt P49675) | – | – | – | – | inactive: -0.158 | – | – | – | inactive: -0.086 | – |
| STAB1 (UniProt Q9NY15) | inactive: -0.016 | – | – | inactive: -0.036 | inactive: -0.107 | – | inactive: -0.072 | – | inactive: 0.003 | inactive: 0.082 |
| SRGAP1 (UniProt Q7Z6B7) | – | – | inactive: 0.138 | – | inactive: -0.201 | – | – | – | inactive: 0.032 | – |
| SRXN1 (UniProt Q9BYN0) | – | inactive: 0.019 | inactive: 0.209 | – | inactive: -0.283 | inactive: 0.111 | – | inactive: -0.008 | inactive: 0.022 | – |
| SSBP4 (UniProt U3KPY3) | – | – | – | – | inactive: -0.189 | – | – | – | inactive: -0.121 | – |
| SPIRE1 (UniProt Q08AE8) | – | – | inactive: 0.141 | inactive: -0.166 | inactive: 0.047 | inactive: 0.035 | – | inactive: -0.105 | inactive: -0.074 | – |

Complete entries as entered above. Order of values: log2 fold change (saracatinib) | log2 fold change (sotrastaurin) | log2 fold change (Tubastatin A) | log2 fold change [1] | log2 fold change (defactinib) | log2 fold change (rucaparib) | log2 fold change [2] | log2 fold change (encorafenib) | log2 fold change [3] | log2 fold change (alvocidib)
SRP68 (UniProt Q9UHB9) as listed: inactive: -0.033 | inactive: -0.179 | inactive: 0.085 | inactive: -0.002 | inactive: -0.019 | inactive: 0.152 | inactive: 0.049 | inactive: 0.14 | inactive: -0.073 | –
STAR (UniProt P49675) as listed: – | – | – | – | inactive: -0.158 | – | – | – | inactive: -0.086 | –
